# Some of the results follow. Only a few entries rise above the background.
# Legend:
# Test in all cases: fluorescence intensity of antibody binding to polysaccharide-coupled beads; higher = stronger binding
# [1] = target: pneumococcal polysaccharide C-Poly-1
# [2] = target: pneumococcal polysaccharide C-Poly-2
# [3] = target: pneumococcal polysaccharide Pn1
# [4] = target: pneumococcal polysaccharide Pn10A
# [5] = target: pneumococcal polysaccharide Pn10B
# [6] = target: pneumococcal polysaccharide Pn10C
# [7] = target: pneumococcal polysaccharide Pn10F
# [8] = target: pneumococcal polysaccharide Pn11A
# [9] = target: pneumococcal polysaccharide Pn11B
# [10] = target: pneumococcal polysaccharide Pn11C
# [11] = target: pneumococcal polysaccharide Pn11D
# [12] = target: pneumococcal polysaccharide Pn11F
# [13] = target: pneumococcal polysaccharide Pn12A
# [14] = target: pneumococcal polysaccharide Pn12B
# [15] = target: pneumococcal polysaccharide Pn12F
# [16] = target: pneumococcal polysaccharide Pn13
# [17] = target: pneumococcal polysaccharide Pn14
# [18] = target: pneumococcal polysaccharide Pn15A
# [19] = target: pneumococcal polysaccharide Pn15B
# [20] = target: pneumococcal polysaccharide Pn9N
# [21] = target: pneumococcal polysaccharide Pn9V
# [22] = antibody concentration 0.1 ng/mL
# [23] = antibody concentration 0.534724 ng/mL
# [24] = antibody concentration 2.8593 ng/mL
# [25] = antibody concentration 15.2894 ng/mL
# [26] = antibody concentration 81.7561 ng/mL
# [27] = antibody concentration 437.17 ng/mL
# [28] = antibody concentration 2337.65 ng/mL
# [29] = antibody concentration 12500 ng/mL
binder,measurement,setting,value
4-80.1 (protein) chain 1: QVQLQESGPGLVKPSETLSLTCAVSGIPISTYWWSWIRQTPEKGLEWIGEIDGNGGGTNYNPSLQSRVTFSKDASKNQFSLRLNSVTAADTAVFYCARLWGNAYWGQGVLVTVSS chain 2: DVVMTQSPLSLPINPGQPASISCRSSQSLVYSDGKTYLTWYQQKPGQPPRRLIYQVSKRDSGVPDRFSGSGAGTDFTLKISRVESEDVGIYYCLQGTHLPYTFGQGTKVEIK,fluorescence intensity,[1]; [22],27.2 MFI
same,fluorescence intensity,[1]; [23],25.5 MFI
same,fluorescence intensity,[1]; [24],27 MFI
same,fluorescence intensity,[1]; [25],27 MFI
same,fluorescence intensity,[1]; [26],39.5 MFI
same,fluorescence intensity,[1]; [27],83.5 MFI
same,fluorescence intensity,[1]; [28],148 MFI
same,fluorescence intensity,[1]; [29],216 MFI
same,fluorescence intensity,[2]; [22],21 MFI
same,fluorescence intensity,[2]; [23],20 MFI
same,fluorescence intensity,[2]; [24],20 MFI
same,fluorescence intensity,[2]; [25],22.5 MFI
same,fluorescence intensity,[2]; [26],23.8 MFI
same,fluorescence intensity,[2]; [27],34.5 MFI
same,fluorescence intensity,[2]; [28],51.5 MFI
same,fluorescence intensity,[2]; [29],100 MFI
same,fluorescence intensity,[3]; [22],14 MFI
same,fluorescence intensity,[3]; [23],13 MFI
same,fluorescence intensity,[3]; [24],14.8 MFI
same,fluorescence intensity,[3]; [25],18.8 MFI
same,fluorescence intensity,[3]; [26],64.5 MFI
same,fluorescence intensity,[3]; [27],262 MFI
same,fluorescence intensity,[3]; [28],462 MFI
same,fluorescence intensity,[3]; [29],566 MFI
same,fluorescence intensity,[4]; [22],27 MFI
same,fluorescence intensity,[4]; [23],26.2 MFI
same,fluorescence intensity,[4]; [24],27.2 MFI
same,fluorescence intensity,[4]; [25],32.5 MFI
same,fluorescence intensity,[4]; [26],88 MFI
same,fluorescence intensity,[4]; [27],438 MFI
same,fluorescence intensity,[4]; [28],856 MFI
same,fluorescence intensity,[4]; [29],1080 MFI
same,fluorescence intensity,[5]; [22],26 MFI
same,fluorescence intensity,[5]; [23],26.5 MFI
same,fluorescence intensity,[5]; [24],34.2 MFI
same,fluorescence intensity,[5]; [25],164 MFI
same,fluorescence intensity,[5]; [26],612 MFI
same,fluorescence intensity,[5]; [27],2520 MFI
same,fluorescence intensity,[5]; [28],3680 MFI
same,fluorescence intensity,[5]; [29],3500 MFI
same,fluorescence intensity,[6]; [22],16.2 MFI
same,fluorescence intensity,[6]; [23],16.5 MFI
same,fluorescence intensity,[6]; [24],17 MFI
same,fluorescence intensity,[6]; [25],18.5 MFI
same,fluorescence intensity,[6]; [26],33.5 MFI
same,fluorescence intensity,[6]; [27],312 MFI
same,fluorescence intensity,[6]; [28],898 MFI
same,fluorescence intensity,[6]; [29],1360 MFI
same,fluorescence intensity,[7]; [22],20.5 MFI
same,fluorescence intensity,[7]; [23],20.5 MFI
same,fluorescence intensity,[7]; [24],21.2 MFI
same,fluorescence intensity,[7]; [25],33 MFI
same,fluorescence intensity,[7]; [26],128 MFI
same,fluorescence intensity,[7]; [27],714 MFI
same,fluorescence intensity,[7]; [28],1400 MFI
same,fluorescence intensity,[7]; [29],1710 MFI
same,fluorescence intensity,[8]; [22],30.5 MFI
same,fluorescence intensity,[8]; [23],30 MFI
same,fluorescence intensity,[8]; [24],31.5 MFI
same,fluorescence intensity,[8]; [25],34.5 MFI
same,fluorescence intensity,[8]; [26],49.8 MFI
same,fluorescence intensity,[8]; [27],224 MFI
same,fluorescence intensity,[8]; [28],408 MFI
same,fluorescence intensity,[8]; [29],493 MFI
same,fluorescence intensity,[9]; [22],26.8 MFI
same,fluorescence intensity,[9]; [23],26 MFI
same,fluorescence intensity,[9]; [24],28.2 MFI
same,fluorescence intensity,[9]; [25],36.8 MFI
same,fluorescence intensity,[9]; [26],122 MFI
same,fluorescence intensity,[9]; [27],885 MFI
same,fluorescence intensity,[9]; [28],1960 MFI
same,fluorescence intensity,[9]; [29],2320 MFI
same,fluorescence intensity,[10]; [22],22.2 MFI
same,fluorescence intensity,[10]; [23],22 MFI
same,fluorescence intensity,[10]; [24],21.8 MFI
same,fluorescence intensity,[10]; [25],21.5 MFI
same,fluorescence intensity,[10]; [26],23 MFI
same,fluorescence intensity,[10]; [27],27.5 MFI
same,fluorescence intensity,[10]; [28],38.8 MFI
same,fluorescence intensity,[10]; [29],72.8 MFI
same,fluorescence intensity,[11]; [22],23 MFI
same,fluorescence intensity,[11]; [23],22.5 MFI
same,fluorescence intensity,[11]; [24],23 MFI
same,fluorescence intensity,[11]; [25],32.5 MFI
same,fluorescence intensity,[11]; [26],94.2 MFI
same,fluorescence intensity,[11]; [27],576 MFI
same,fluorescence intensity,[11]; [28],1250 MFI
same,fluorescence intensity,[11]; [29],1700 MFI
same,fluorescence intensity,[12]; [22],13.5 MFI
same,fluorescence intensity,[12]; [23],14 MFI
same,fluorescence intensity,[12]; [24],14 MFI
same,fluorescence intensity,[12]; [25],15.8 MFI
same,fluorescence intensity,[12]; [26],41.8 MFI
same,fluorescence intensity,[12]; [27],465 MFI
same,fluorescence intensity,[12]; [28],1260 MFI
same,fluorescence intensity,[12]; [29],1750 MFI
same,fluorescence intensity,[13]; [22],14.5 MFI
same,fluorescence intensity,[13]; [23],15.5 MFI
same,fluorescence intensity,[13]; [24],15 MFI
same,fluorescence intensity,[13]; [25],22 MFI
same,fluorescence intensity,[13]; [26],47.5 MFI
same,fluorescence intensity,[13]; [27],468 MFI
same,fluorescence intensity,[13]; [28],1360 MFI
same,fluorescence intensity,[13]; [29],2010 MFI
same,fluorescence intensity,[14]; [22],15.5 MFI
same,fluorescence intensity,[14]; [23],14 MFI
same,fluorescence intensity,[14]; [24],17 MFI
same,fluorescence intensity,[14]; [25],20.5 MFI
same,fluorescence intensity,[14]; [26],66 MFI
same,fluorescence intensity,[14]; [27],542 MFI
same,fluorescence intensity,[14]; [28],1300 MFI
same,fluorescence intensity,[14]; [29],1930 MFI
same,fluorescence intensity,[15]; [22],19.5 MFI
same,fluorescence intensity,[15]; [23],19.2 MFI
same,fluorescence intensity,[15]; [24],20.2 MFI
same,fluorescence intensity,[15]; [25],33.2 MFI
same,fluorescence intensity,[15]; [26],148 MFI
same,fluorescence intensity,[15]; [27],657 MFI
same,fluorescence intensity,[15]; [28],1170 MFI
same,fluorescence intensity,[15]; [29],1430 MFI
same,fluorescence intensity,[16]; [22],20 MFI
same,fluorescence intensity,[16]; [23],20 MFI
same,fluorescence intensity,[16]; [24],20 MFI
same,fluorescence intensity,[16]; [25],40.5 MFI
same,fluorescence intensity,[16]; [26],200 MFI
same,fluorescence intensity,[16]; [27],1340 MFI
same,fluorescence intensity,[16]; [28],2540 MFI
same,fluorescence intensity,[16]; [29],3060 MFI
same,fluorescence intensity,[17]; [22],14.5 MFI
same,fluorescence intensity,[17]; [23],13.8 MFI
same,fluorescence intensity,[17]; [24],15 MFI
same,fluorescence intensity,[17]; [25],19 MFI
same,fluorescence intensity,[17]; [26],42.8 MFI
same,fluorescence intensity,[17]; [27],106 MFI
same,fluorescence intensity,[17]; [28],158 MFI
same,fluorescence intensity,[17]; [29],212 MFI
same,fluorescence intensity,[18]; [22],13 MFI
same,fluorescence intensity,[18]; [23],13.5 MFI
same,fluorescence intensity,[18]; [24],13 MFI
same,fluorescence intensity,[18]; [25],19 MFI
same,fluorescence intensity,[18]; [26],59.8 MFI
same,fluorescence intensity,[18]; [27],435 MFI
same,fluorescence intensity,[18]; [28],965 MFI
same,fluorescence intensity,[18]; [29],1360 MFI
same,fluorescence intensity,[19]; [22],20.5 MFI
same,fluorescence intensity,[19]; [23],19 MFI
same,fluorescence intensity,[19]; [24],19.5 MFI
same,fluorescence intensity,[19]; [25],25.5 MFI
same,fluorescence intensity,[19]; [26],62.2 MFI
same,fluorescence intensity,[19]; [27],279 MFI
4-127.1 (protein) chain 1: QVQLQESGPGLVKPSETLSLTCAVSDYSINTGHGWTWIRQPPGKGLEWIGYIGGSSGSPNYNPSLKSRVTISKDTSKNELSLKLNSVTAADTAVYYCARRIPADRSGNDFWGQGVLVTVSS chain 2: QSVLTQPPSVSGDPGQRVTISCTGSSSNIGGFYGYWYQQFPGTAPKLLIYDNNKRPSGISDRFSGSKSGTSASLTITGLQPGDEADYYCGSWDSSLSAHVFGSGTKLTVL,fluorescence intensity,[20]; [28],16.5 MFI
same,fluorescence intensity,[20]; [29],25 MFI
same,fluorescence intensity,[21]; [22],15.2 MFI
same,fluorescence intensity,[21]; [23],14.5 MFI
same,fluorescence intensity,[21]; [24],13.5 MFI
same,fluorescence intensity,[21]; [25],14.2 MFI
same,fluorescence intensity,[21]; [26],15 MFI
same,fluorescence intensity,[21]; [27],16 MFI
same,fluorescence intensity,[21]; [28],18 MFI
same,fluorescence intensity,[21]; [29],23.2 MFI

# In another format: entries from further up.
binder | measurement | setting | value
4-80.1 (protein) chain 1: QVQLQESGPGLVKPSETLSLTCAVSGIPISTYWWSWIRQTPEKGLEWIGEIDGNGGGTNYNPSLQSRVTFSKDASKNQFSLRLNSVTAADTAVFYCARLWGNAYWGQGVLVTVSS chain 2: DVVMTQSPLSLPINPGQPASISCRSSQSLVYSDGKTYLTWYQQKPGQPPRRLIYQVSKRDSGVPDRFSGSGAGTDFTLKISRVESEDVGIYYCLQGTHLPYTFGQGTKVEIK | fluorescence intensity | [3]; [22] | 14 MFI
same | fluorescence intensity | [3]; [24] | 14.8 MFI
same | fluorescence intensity | [5]; [27] | 2520 MFI
same | fluorescence intensity | [8]; [29] | 493 MFI
same | fluorescence intensity | [10]; [28] | 38.8 MFI
same | fluorescence intensity | [11]; [25] | 32.5 MFI
same | fluorescence intensity | [17]; [29] | 212 MFI

# Reprinted at random: 2 entries already listed.
binder,measurement,setting,value
4-80.1 (protein) chain 1: QVQLQESGPGLVKPSETLSLTCAVSGIPISTYWWSWIRQTPEKGLEWIGEIDGNGGGTNYNPSLQSRVTFSKDASKNQFSLRLNSVTAADTAVFYCARLWGNAYWGQGVLVTVSS chain 2: DVVMTQSPLSLPINPGQPASISCRSSQSLVYSDGKTYLTWYQQKPGQPPRRLIYQVSKRDSGVPDRFSGSGAGTDFTLKISRVESEDVGIYYCLQGTHLPYTFGQGTKVEIK,fluorescence intensity,[8]; [24],31.5 MFI
same,fluorescence intensity,[17]; [28],158 MFI

# From the supplement of paper PMC11438910
